In PubChem BioAssay AID540256 (National Center for Advancing Translational Sciences (NCATS), 2011):
In all, about 300,000 compounds went through this assay and about 3,700 (1.2%) were called active. The inconclusive results got no clear call from the source; some entries with a clear call stand among them for comparison. The call rests on the fitted dose curve; tested in HEK293 cells. Where the call is inconclusive, the potency comes from a doubtful curve fit.
Potency means the concentration at half of the fitted maximal effect.

Test: qHTS for Inhibitors of binding or entry into cells for Lassa Virus; further: nearly all actives have a fitted effect of over 50% in size
Conditions: Lassa virus pseudotype entry inhibition, cell reporter; series mostly up to 37.9 µM
For `CC(=O)Nc1nc(-c2ccc(Cl)cc2)ns1`, the Potency was inconclusive: 2.91 µM [activator, single point].
With `CC1(C)CC(=O)C2=C(C1)OC1=C(C(=O)CC(C)(C)C1)C2c1ccccc1` the Potency was inconclusive: 3.66 µM [inhibitor, full curve, poor fit].
In the case of `CC(C)(C)OC(=O)NNC(=O)Nc1ccccc1C(F)(F)F`, the Potency is reported as “inactive”.
In the case of `NNC(=O)C1=NOC2COC3(CCN(c4ncccn4)CC3)OCC12` (stereo not given), the Potency is reported as inconclusive: 20.6 µM [activator, partial curve, poor fit].
In the case of `COc1ccc2[nH]cc(CCNS(=O)(=O)Cc3ccccc3)c2c1`, the Potency is reported as inconclusive: 22.4 µM [inhibitor, single point].
With `COc1ccc(Nc2oc(-c3ccc(F)cc3)nc2C#N)cc1` the Potency was inconclusive: 0.562 µM [inhibitor, full curve, poor fit].
With `COc1cccc(C2c3[nH]c4ccccc4c3CCN2CCCn2cccn2)c1` (stereo not given) the Potency was inconclusive: 7.94 µM [inhibitor, partial curve, poor fit].
With `CCOC(=O)C1CCN(C2=NC(=O)/C(=C/c3ccc(O)cc3)S2)CC1` the Potency was “inactive”.
With `Cc1cc(=O)oc2cc(OCCc3ccccc3)ccc12` the Potency was inconclusive: 1.41 µM [inhibitor, full curve, poor fit].
In the case of `COc1ccc(NS(=O)(=O)c2ccc(NC(=O)c3ccc(N(C)S(C)(=O)=O)cc3)cc2)cc1`, the Potency is reported as inconclusive: 35.5 µM [inhibitor, single point].
In the case of `Cc1ccc(C(C)C)c(Oc2nnnn2-c2ccccc2)c1`, the Potency is reported as inconclusive: 29.1 µM [inhibitor, single point].
With `COC(=O)NNC(=S)NCc1ccc(C)cc1` the Potency was “inactive”.
With `O=C(O)c1ccccc1Cc1ccc2c(c1)CCCC2` the Potency was “inactive”.
With `CC(=O)c1c(C)[nH]c(C(=O)CSc2ccc(F)cc2)c1C` the Potency was inconclusive: 6.31 µM [inhibitor, partial curve, poor fit].
For `CCOC(=O)C1=C(C)N(C)C(C)=C(C(=O)OCC)C1c1ccccc1`, the Potency was “inactive”.
With `CCCCn1c(N)c(N(CC)C(=O)c2cccc(S(=O)(=O)N3CCCc4ccccc43)c2)c(=O)[nH]c1=O` the Potency was “inactive”.
With `Cc1cccc(C2CN(C)CCc3c2cc(O)c(O)c3Cl)c1` (stereo not given) the Potency was inconclusive: 13 µM [inhibitor, single point].
In the case of `CCC(C)N(NC(C)=O)c1nc(Cl)nc(NC(C)C)n1` (stereo not given), the Potency is reported as “inactive”.
In the case of `CCCCC(=O)Nc1c(C(=O)N2CCN(c3ccccc3F)CC2)oc2ccccc12`, the Potency is reported as inconclusive: 10 µM [inhibitor, partial curve].
With `CCCOC(=O)c1cccc(NC(=O)c2c(-c3ccccc3Cl)noc2C)c1` the Potency was inconclusive: 10 µM [inhibitor, partial curve, poor fit].
